## Library screen at single concentrations

Protein sequences, listed by entry. Tags and fused reporters are not part of them. Residues count along the entry.
UniProt Q4DA54, 1-478: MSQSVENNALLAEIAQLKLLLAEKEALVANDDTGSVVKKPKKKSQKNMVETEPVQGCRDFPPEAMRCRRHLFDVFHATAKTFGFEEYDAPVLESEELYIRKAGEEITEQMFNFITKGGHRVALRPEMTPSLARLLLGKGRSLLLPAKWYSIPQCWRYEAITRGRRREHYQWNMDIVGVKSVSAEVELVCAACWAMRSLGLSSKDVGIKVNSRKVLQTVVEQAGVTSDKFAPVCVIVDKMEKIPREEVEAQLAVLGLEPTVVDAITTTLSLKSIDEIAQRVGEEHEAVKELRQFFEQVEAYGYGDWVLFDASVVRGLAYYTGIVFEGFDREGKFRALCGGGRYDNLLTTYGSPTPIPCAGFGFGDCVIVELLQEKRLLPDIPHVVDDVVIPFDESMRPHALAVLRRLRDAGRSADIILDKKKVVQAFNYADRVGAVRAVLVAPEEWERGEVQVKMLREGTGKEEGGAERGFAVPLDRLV

Data taken from ChEMBL document CHEMBL3988442, “University of Dundee, Small-Polar-MMV Screening Library” (2021).

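Enzyme assay of histidyl-tRNA synthetase; the read-out is not stated. Target: Histidine-tRNA ligase, Trypanosoma cruzi CL Brener (UniProt Q4DA54). Concentration: 30 µM. Direction is inferred from retests: higher values go with stronger inhibition. About 69,000 compounds were tested under these conditions; 0.045% (about 31) showed 50% or more at least once.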

Values are the deposited “Percent Effect”, in %. The controls that fix the scale are not given in the record; negative values are as filed. The compounds are a random part of those screened.

- O=C(NCCc1ccc2c(c1)OCO2)C1CCCN(Cc2ccco2)C1 (centres undefined) : 6.704%
- CCn1nc2c(cc1=O)CN(Cc1nc(C)c(C)o1)CC2 : -0.578%
- CO[C@H]1CN(C(=O)c2ccnnc2)[C@@H]2COC[C@H]12 : 4.132%
- COc1ccc2c(C(=O)N(C)C)cc(-c3cnc(N)nc3)nc2c1 : 6.667%
- CC(=O)Nc1ccc(Cl)c(C(=O)N(C)C(C)c2ccncn2)c1 (centres undefined) : -2.809%
- CC(C)Oc1ncccc1CNC(=O)c1cc[nH]n1 : -0.7519%
- COc1cc(-c2cc(N)ncn2)cc(OC)c1OC : -1.13%
- Cc1ccc(C(N)c2cccc(S(C)(=O)=O)c2)c(C)c1 (centres undefined) : 2.305%
- CNCCCNc1nc(C2CCCC2)nc2c1cnn2C : 0%
- c1ccc(COc2ccccc2NC2CCOCC2)nc1 : 8.28%
- Cc1ccc2nc(-c3nc4c([nH]3)CCCNC4=O)cn2c1 : -12%
- Cc1cnc(C(=O)N2CCC3(CCN3Cc3ccc(F)cc3)C2)cn1 (centres undefined) : 7.538%
- CCCOC1CCCN(C(=O)c2ccc(S(N)(=O)=O)cc2)C1 (centres undefined) : 4.167%
- CSCc1cccc(S(=O)(=O)NCCCn2ccnc2)c1 : 5.021%
- CC(=O)c1ccc(NC(=O)NC(C(=O)N(C)C)C(C)C)cc1 (centres undefined) : 3.947%
- O=C(Nc1ccccc1)c1cc2n(n1)CCCN(C(=O)c1ccc[nH]1)C2 : 2.062%
- COCCCNC(=O)c1ccn(-c2ccc3ccccn23)n1 : 7.438%
- CCC[C@@H]1CN(Cc2c[nH]nc2-c2ccc(F)cc2)C[C@H]1NS(C)(=O)=O : 2.146%
- Cn1cc(Cl)cc1C(=O)N1CCN(Cc2cccs2)CC1 : 5.294%
- CN(C)CC(=O)N1CCCC1c1cncc(Oc2ccc(F)cc2)n1 (centres undefined) : -1.111%
- COCCN1C[C@@H]2[C@@H](OC)CCN(Cc3ccsc3)[C@@H]2C1 : 1.754%
- CC(C)CNC(=O)c1c(-n2cnnn2)sc2c1CCC2 : 2.174%
- COc1c(C)cnc(CN2CCOC(Cn3nc(C)cc3C)C2)c1C (centres undefined) : 8%
- O=C(NCc1ccccc1)NCC1CCN(Cc2ccsc2)CC1 : 7.538%
- O=C(NCC(F)(F)F)c1ccc(-c2ccco2)[nH]c1=O : 3.779%
- CN(CCc1ccccc1)C1CCCN(Cc2nccn2C)C1 (centres undefined) : 2.51%
- Cn1nc2c(cc1=O)CN(Cc1nnc(-c3ccco3)o1)CC2 : 1.527%
- Cc1nnc(SCc2cc(=O)n3c4c(sc3n2)CCCC4)[nH]1 : 6.931%
- CN1C(=O)CC(c2cnn(C)c2)C12CCN(C(=O)C1CC=CC1)CC2 (centres undefined) : -0.5525%
- CN1CC2(CCCN(c3cc(N4CCCCC4)ncn3)C2)OC1=O (centres undefined) : -2.299%
- Cc1csc2nc3n(c(=O)c12)CCN(C(=O)c1ccncc1)CC3 : -0.5405%
- COc1cccc(CNCC2CN(C)CCO2)c1 (centres undefined) : 5.233%
- O=C(Cc1ccccn1)N1CCC2(CC1)CC(Oc1ccccn1)CO2 (centres undefined) : 4.918%
- CC1(C)Cc2ccccc2-c2nc(NCCO)[nH]c(=O)c21 : 0%
- CC(C)OC(=O)N1CCCCC1CCn1cccn1 (centres undefined) : 3.743%
- CNC(=O)[C@@]12CCC3(CCN(S(=O)(=O)C4CC4)CC3)[C@@H]1CN(C(C)=O)C2 : 9.346%
- c1ccc(C(CC2CN(Cc3ncc[nH]3)CCO2)c2ccccc2)cc1 (centres undefined) : 2.488%
- N#Cc1cccc(CN2CCN(C(=O)C3CCC3)[C@@H]3CS(=O)(=O)C[C@@H]32)c1 : 1.98%
- COCCCC1CCCCN1Cc1cn2cc(C)ccc2n1 (centres undefined) : 10.45%

For reference, 4 entries once more:

compound	Percent Effect
Cc1ccc2nc(-c3nc4c([nH]3)CCCNC4=O)cn2c1	-12%
O=C(NCC(F)(F)F)c1ccc(-c2ccco2)[nH]c1=O	3.779%
CC(=O)c1ccc(NC(=O)NC(C(=O)N(C)C)C(C)C)cc1 (centres undefined)	3.947%
CN(CCc1ccccc1)C1CCCN(Cc2nccn2C)C1 (centres undefined)	2.51%